For this experiment, the target named is RXRalpha amino acids 225-462 construct (Homo sapiens (Human)) (UniProt P19793). Kind of experiment: co-expression in E. coli; untagged RXRalpha co-purified with His6-PXR on Ni chelation resin, then size exclusion.

Amino acid sequences for entries named in this document (tags omitted). A change or cut given only in a name is not applied to a line headed by its entry.
UniProt P19793: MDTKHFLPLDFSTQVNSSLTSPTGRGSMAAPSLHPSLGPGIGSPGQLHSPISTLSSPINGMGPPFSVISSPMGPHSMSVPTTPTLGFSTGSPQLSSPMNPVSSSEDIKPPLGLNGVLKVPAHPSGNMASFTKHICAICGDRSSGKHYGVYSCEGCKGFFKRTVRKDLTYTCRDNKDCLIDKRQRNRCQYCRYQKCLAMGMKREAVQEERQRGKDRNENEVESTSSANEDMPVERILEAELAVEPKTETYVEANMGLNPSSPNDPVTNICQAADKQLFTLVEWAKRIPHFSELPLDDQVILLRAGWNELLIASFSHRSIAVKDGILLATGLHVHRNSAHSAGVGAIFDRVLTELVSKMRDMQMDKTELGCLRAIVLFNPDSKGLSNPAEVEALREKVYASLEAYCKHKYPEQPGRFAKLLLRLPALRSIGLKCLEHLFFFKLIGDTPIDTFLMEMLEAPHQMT

Results are given in words; binding and its absence hold for the method and conditions named. In cells and extracts the contact can be indirect. Some entries that bind do so weakly or less than the wild type. Where a sequence is shown, tags or fusion partners need not be part of it.

B1: His6-PXR (human PXR amino acids 130-434 with N-terminal polyhistidine tag) (receptor)
chain: MKKGHHHHHHGSERTGTQPLGVQGLTEEQRMMIRELMDAQMKTFDTTFSHFKNFRLPGVLSSGCELPESLQAPSREEAAKWSQVRKDLCSLKVSLQLRGEDGSVWNYKPPADSGGKEIFSLLPHMADMSTYMFKGIISFAKVISYFRDLPIEDQISLLKGAAFELCQLRFNTVFNAETGTWECGRLSYCLEDTAGGFQQLLLEPMLKFHYMLKKLQLHEEEYVLMQAISLFSPDRPGVLQHRVVDQLQEQFAITLKSYIECNRPQPAHRFLFLKIMAMLTELRSINAQHTQRLLRIQDIHPFATPLMQELFGITGS
For the molecule B1, the binding entry is on record as “binds”.

These data come from patent publication US20080096239A1.
